# Measured values: PMC8022279
# By UniProt entry, the sequences of proteins in these tests, tags left out.
# UniProt Q02775: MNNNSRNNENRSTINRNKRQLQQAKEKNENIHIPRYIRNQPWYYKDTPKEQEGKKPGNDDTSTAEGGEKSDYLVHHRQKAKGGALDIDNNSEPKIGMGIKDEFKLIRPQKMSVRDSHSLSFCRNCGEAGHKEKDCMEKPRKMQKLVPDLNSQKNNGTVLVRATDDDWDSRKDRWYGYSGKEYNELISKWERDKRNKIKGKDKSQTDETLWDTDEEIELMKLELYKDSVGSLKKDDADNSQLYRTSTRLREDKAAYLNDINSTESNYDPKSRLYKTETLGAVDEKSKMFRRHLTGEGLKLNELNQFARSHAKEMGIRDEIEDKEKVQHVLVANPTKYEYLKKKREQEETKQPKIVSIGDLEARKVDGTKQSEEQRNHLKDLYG
# Results are given in words; binding and its absence hold for the method and conditions named. Some binding calls cover weakened binding; strength is not graded here.
# Tests used:
# [1] = target: T1, recombinant Prp18 (of the Slu7/Prp18 heterodimer) (S. cerevisiae) (UniProt P33411); assay: co-purification (Ni-NTA, then gel filtration); Prp18 and Slu7 co-expressed in E. coli; Ni-NTA in buffer A250 (50mM Tris-HCl pH 7.5, 250mM NaCl), heterodimer eluting at 100 mM imidazole, then gel filtration in buffer A250
# T1 sequence: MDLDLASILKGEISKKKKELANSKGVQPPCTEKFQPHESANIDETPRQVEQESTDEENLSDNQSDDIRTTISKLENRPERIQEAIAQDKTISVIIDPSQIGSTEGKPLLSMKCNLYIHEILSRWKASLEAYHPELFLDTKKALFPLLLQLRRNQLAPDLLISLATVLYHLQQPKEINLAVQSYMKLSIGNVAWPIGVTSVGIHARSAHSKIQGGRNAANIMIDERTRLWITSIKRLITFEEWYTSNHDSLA
# [2] = target: T2, Prp18 (S. cerevisiae (endogenous in splicing extract)) (UniProt P33411); assay: cryo-EM structure; endogenous S. cerevisiae C/Ci-complex spliceosomes assembled in splicing extract on UBC4 pre-mRNA and affinity purified (buffer K-75, 75 mM KCl); C-complex particles of 6 datasets merged (C and P particles merged for the Prp19 module); focused classification and focused …
# T2 sequence: T1 sequence
binding [1],binding [2],Substance
binds,,recombinant Slu7 (of the Slu7/Prp18 heterodimer) (from UniProt Q02775 1-382)
,binds,Slu7 (from UniProt Q02775 1-382)
